The text below walks through data of patent US8729012.

Weaker means in comparison with the reference protein, sequence or condition of that experiment.

This data set deals with gene 5 protein (g5p) (bacteriophage M13) (UniProt P69544). Nature of the data set: binding assay. Conditions: 5'-HS-C3H6 on gold nanoparticle; DLS assembly rate dropped dramatically at C-ssDNA fraction above about 0.05; 2.5 uM g5p, 5 nM ssDNA-Au; purified recombinant protein; variant of ssDNA on gold nanoparticles (ssDNA-Au).

Regarding “TTTTTTTTTTTTTTTTAACCTAACCTTCAT / ATGAAGGTTAGGTTA [ssDNA-Au prehybridized with C-ssDNA]”, the binding result is recorded as “binds more weakly”.
